Sequences and labels used below:
T1: Homer1 EVH1 domain
T1 chain: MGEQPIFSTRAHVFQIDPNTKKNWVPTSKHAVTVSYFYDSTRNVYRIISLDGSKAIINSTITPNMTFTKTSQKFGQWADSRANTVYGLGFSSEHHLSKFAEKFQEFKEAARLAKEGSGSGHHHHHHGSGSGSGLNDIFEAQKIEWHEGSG

The list shows a part of the results. Values are worked out from sequencing counts and are noisy.

The experiment addresses T1, Homer1 EVH1 domain. Description: enrichment score (AUC of log2 frequency ratio across FACS sorting rounds) (log2 AUC); higher = stronger enrichment for Homer1 EVH1 binding.
With SYGALKGDGILIVVNTVGAALQTLYILAYLHYCPRK, the enrichment score was found to be 2.21.

On to ENGWLKAVQVLMVLSLILYCLSFILFMFQLYTMRRG, for which the enrichment score stood at 3.97.

With YLTILPEGLFMLSLCLVPTFAVSCLLLGLDLRSGLH, the enrichment score came out at 3.64.

On to FASDRDTYLWIGYLCAILLFTAALIQSFCLQCYFQL, for which the enrichment score stood at 2.72. Regarding QVIIRERYRDNDSDLALGMLAGAATGMALGSLFWVF, the enrichment score is 0.915. The result for MELCRSLALLGGSLGLMFCLIALSTDFWFEAVGPTH reads 1.62; that for PEVARFGYFSAALLAPHLIGEFLTLVLLGIVQNPNI, 1.42; that for FGVIATIAFLMINAVSNGQVRGDSYSEGCLGQTGAH, 2.7. In the case of FINPTSFSLHVLSKINIFYYSVLLLTLYTVLGPWFF it was 2.11. On to SNKQKPVMGPPLRGRGKGRGRIRSEDEEDLGNARPS, for which the enrichment score was -2.02. On to TLAGALFLHQRRKYRSNKGESPVEPAEPCRYSCPRE, for which the enrichment score was 1.26.

On to MSSSETLPSGNLFGLLIIFYSAIIGGKILQLIRIPI, for which the enrichment score amounted to 1.67. The result for LTEHFFHASTQGILTINILRGQILIALCFVILLATT reads 2.97. Regarding MKYVFYLGVLAGTFFFADSSVQKEDPAPYLVYLKSH, the enrichment score is 0.601. Regarding EGQLPLLFNTLNSHSSPFTAVLLLVTLGSLAIILTS, the enrichment score is 1.32.

In the case of KVKPAEAETAGAIMAFFLCLGLALGAVFSFLFRAIV, the enrichment score turned out to be 3.42.

Turning to MDKLDANVSSEEGFGSVEKVVLLTFLSTVILMAILG, the enrichment score is 2.98. On to SALTQKGLKTVFDEAIIAILTPKKHTVKKKNRIKMY, for which the enrichment score was -3.12. Turning to YLGNLIALANLVSICVFLVLDADVLPAERDDFILGI, the enrichment score was determined as 0.873. GSIDSGPPGLLRGAIPSSIWVVSIIMFRLILLILSV: the enrichment score was 2.42.

Consider DNRGDIGLLLGMIVFAVMLSILSLIGIFNRSFRTGI, for which the enrichment score came out at 3.44. The result for QKRITKKNPKKAEKLERKKVYRAEYINFLENLKILE reads -0.377. As to TTNQISLGSLRSIVKSLLLVPNGALKKSLTAKQVQA, the enrichment score is -3.22. In the case of QVTACLIYINMYLSTIFLAFVSIDRCLQLTHSCKIY it was 1.02. The result for FPPFLMILFIALCLLGSHLGSGPTYPSQAQGLQPRR reads 3.08. QNKVITYIACLMQMYFFILFAGFENFLLSVMAMNRV: the enrichment score stood at 3.74. In the case of RRYPELRKNNIENFSKDKDSIFKLRNLSRRTPKRHG it was -0.0357.

Consider VVILPLSLFRNLGYLGYTSGLSLLCMVFFLIVVICK, for which the enrichment score came to 1.15. As to MPPPPPFGFGVPAAPVLPFGLTPKKLYKPEVQLRRP, the enrichment score stood at 4.6. The result for NAPEEKASVGPWLLALFVFVVCGSAIFQIIQSIRMG reads 2.63; that for IERLLKLAVPNHLIWLIFFYCLFHSCLNAVAELMQL, 2.49; that for SIKVANKSDTQFQLHFLSKIYITLIHLVYLLLIINQ, 0.982. For the molecule SGHAAILISGNAKLRRAVMTILLWAQSSLKVRADHK, the enrichment score is -3.15.

For WAVINHFSNWLATSLSIFYLLKIANFSNLIFLHLKR, the enrichment score is 0.144.

As for WYWSDYRDALSLQCLASFLFLYCACMSPVITFGGLL, the enrichment score is -2.37. Regarding DCAAYTISAAAVLGIIYDNQVYWYEGALLLLIYGLY, the enrichment score was -0.795. Regarding DVSVIRVASGYLLMLAYACLTMLRWDCSKSQGAVGL, the enrichment score came to 4.96. In the case of LLLVIWCGVSALSMLTCSSVLHSGNFGTDFRPETPL it was 2.5. As to KWNKYGRPYFCILAALYLLYMICFTTCCVYRPLKFH, the enrichment score came out at 0.678.

Take PIAKLFSVIKNKLSRKLLCTVFETLSDFESGLKYIT: the enrichment score is -1.15. As for FTIFLILFLAFIETPSSLTSTADVRYPAAPWEPPCG, the enrichment score worked out at 2.44. Regarding VPLPLLQGWVMFVSVTAFFFSLLFLGMFLSGMVAQI, the enrichment score was determined as 2.71. In the case of RPFRASSSTFFFQLVLLLGLLLAAVPLGYVVSSIHS it was -4.18.

On to ISNIGHIRPQRTILAFVSGIFFILSGLSLVVGLVLY, for which the enrichment score turned out to be 0.0829.

For the origin of these results see the supplement of paper PMC11237882.
